Construct, isoform or probe ends are uncertain for at least one entry. A negative result means that nothing was seen under these conditions. At least one verdict was read from the data and is not stated in words by the source.

In this data set the test system is PDGF (platelet-derived growth factor). The data set can be described thus: impedance spectroscopy on aptamer-grafted interdigitated sensor. The conditions noted are these: PDGF in PBS, specificity control, values not in the material; grafted on NHS-functionalized mercapto monolayer; attachment group on the DNA not stated; proteins diluted in PBS (5 and 50 pM), about 25 °C, impedance 2.5-100 kHz; aptamer grafted at 50 nM, pH 8, 24 h; water pH 7 as control; commercial protein; single-stranded DNA.

Consider “ATACCAGTCTATTCAATTGGGCCCGTCCGTATGGTGGGTGTGCTGGCCAGATAGTATGTGCAATCA [VEGF165 DNA aptamer]”, for which the binding result was “no binding”.
